Laboratory results as given in PubChem BioAssay AID2551 (National Center for Advancing Translational Sciences (NCATS), 2010).
The whole screen tested about 310,000 compounds, of which about 17,000 (5.5%) were called active. The inconclusive results got no clear call from the source; some entries with a clear call stand among them for comparison. Calls follow the shape of the dose curve; as a rule, active = well fitted inhibition curve with a large enough effect; inconclusive = small, poorly fitted or top-dose-only effect, or effect the other way; inactive = no such curve, though single readings can be large or run the other way. A potency beside an inconclusive call is a rough fit, not a confirmed value.

Protein sequences, listed by entry. Tags and fused reporters are not part of them. Lines headed by an entry give the natural chain unless they say otherwise; changes in a name come on top.
UniProt P51450: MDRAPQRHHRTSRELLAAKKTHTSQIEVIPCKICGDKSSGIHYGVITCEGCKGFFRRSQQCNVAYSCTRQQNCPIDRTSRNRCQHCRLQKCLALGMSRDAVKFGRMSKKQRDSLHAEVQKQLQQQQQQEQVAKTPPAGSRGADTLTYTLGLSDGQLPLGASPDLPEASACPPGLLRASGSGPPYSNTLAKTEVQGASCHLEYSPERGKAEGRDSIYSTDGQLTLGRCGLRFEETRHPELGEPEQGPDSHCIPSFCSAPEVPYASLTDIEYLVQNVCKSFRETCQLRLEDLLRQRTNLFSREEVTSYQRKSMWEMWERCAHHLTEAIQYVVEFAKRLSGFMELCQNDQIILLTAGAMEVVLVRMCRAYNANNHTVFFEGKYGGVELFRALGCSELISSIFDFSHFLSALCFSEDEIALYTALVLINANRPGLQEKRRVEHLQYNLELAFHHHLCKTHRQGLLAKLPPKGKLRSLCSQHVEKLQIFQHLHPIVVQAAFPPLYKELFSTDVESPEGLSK

These compounds were tested against Nuclear receptor ROR-gamma (Mus musculus) (UniProt P51450) (assay: qHTS for inhibitors of ROR gamma transcriptional activity). Settings: Drosophila S2 Gal4-RORgamma UAS-luciferase reporter, 20 h; series mostly up to 53.6 µM.
Method in brief: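 In this cell-based reporter format, copper sulfate (700 uM final) drives Gal4–ROR gamma fusion expression from a metallothionein promoter in Drosophila Schneider cells; compounds preincubated 1 hr, reporter read after 20 hr at ambient temperature.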
Also: nearly all actives have a fitted effect of over 60% in size.
Potency is read from the fitted curve at half-maximal effect.

| Compound | Potency |
| --- | --- |
| CN1CCN(S(=O)(=O)c2ccc([N+](=O)[O-])cc2)CC1 | inactive |
| CC(C)CC(C(=O)NC1CCCCC1)N(Cc1ccccc1)C(=O)c1snc(C(N)=O)c1N (centres undefined) | inactive |
| CCCCOc1ccc(C(=O)CCN2CCOCC2)cc1 | inconclusive: 35.5 µM [inhibitor, single point] |
| O=C(O)[C@H](Cc1ccccc1)NC(=O)N1CCOCC1 | active: 5.01 µM |
| FC(F)(F)c1nc(NCc2cccnc2)c2ccccc2n1 | inconclusive: 17.8 µM [activator, partial curve] |
| COc1ccc(NC(=O)CSc2nc(N)c(NC(=O)c3cccs3)c(=O)[nH]2)cc1 | inactive |
| COc1nnc(-c2ccc(N3CCOCC3)c(NC(=O)c3ccc(C)cc3)c2)c2ccccc12 | inconclusive: 1.41 µM [activator, partial curve] |
| Cc1ccc2nc(-c3ccc(O)cc3)c(Nc3ccc4c(c3)OCCO4)n2c1 | inactive |
| O=C1c2ccccc2C(O)N1c1ccc(Cl)cc1 (centres undefined) | inconclusive: 12.6 µM [activator, single point] |
| CCOC(=O)c1c(NC(C)=O)sc2c1CCC(C=O)=C2Sc1ccccc1 | inconclusive: 7.94 µM [inhibitor, partial curve, poor fit] |
| Cc1c(Cl)c([N+](=O)[O-])nn1Cc1ccc(C(=O)N/N=C\c2cccc(Br)c2)o1 | inconclusive: 11.2 µM [activator, partial curve] |
| Cc1cccc(C(=O)N/N=C/C(C)Cc2ccc3c(c2)OCO3)c1 (centres undefined) | inconclusive: 35.5 µM [inhibitor, single point] |
| O=C(NC(=S)Nc1ccc(S(=O)(=O)N2CCCC2)cc1)C1CCC1 | active: 11.2 µM |
| Cc1ccc(C(=O)NCCNc2ccc([N+](=O)[O-])cc2C(F)(F)F)cc1 | inconclusive: 3.16 µM [activator, partial curve] |
| Cc1ccc2nc(-c3ccc(N4C(=N)SC5CS(=O)(=O)CC54)cc3)sc2c1 (centres undefined) | inconclusive: 5.01 µM [activator, full curve] |
| COc1ccccc1OCC(=O)Nc1ccc(CSc2ccccc2)cc1C | inconclusive: 28.2 µM [activator, single point] |
| CCOC(=O)NC(=O)CSc1nc(C)cc(C)c1C#N | inconclusive: 20 µM [inhibitor, single point] |
| O=C(Nc1ccccc1Cl)/C(Cl)=C(\Cl)S(=O)c1ccccc1 (centres undefined) | active: 0.891 µM |
| Nc1n[nH]c(N)c1N=Nc1ccc(Cl)cc1Cl | inconclusive: 15.8 µM [inhibitor, single point] |
| Fc1ccc(Nc2ncnc3sc4c(c23)CCC4)cc1F | inactive |
| Cc1cc(C)cc(N(C(=O)CCC(=O)Nc2cc(C)on2)C(C(=O)NC2CCCC2)c2ccco2)c1 (centres undefined) | inactive |
| CCOc1ccccc1NC(=O)NC(C)c1ccc2c(c1)OCO2 (centres undefined) | inactive |
| Cc1cccc(-c2noc(-c3cc4ccccc4oc3=O)n2)c1 | active: 0.891 µM |
| CC(=O)c1ccc(N2CCN(C(C)C(=O)NC3CCCc4ccccc43)CC2)cc1 (centres undefined) | inconclusive: 10 µM [activator, partial curve] |
| CN(Cc1ccccc1)c1ccc(C(CC(N)=O)NC(=O)c2ccc(Br)cc2)cc1[N+](=O)[O-] (centres undefined) | inconclusive: 20 µM [activator, single point] |

Grouped by structure: the entries above containing an aryl methoxy group

| Compound | Potency |
| --- | --- |
| COc1ccc(NC(=O)CSc2nc(N)c(NC(=O)c3cccs3)c(=O)[nH]2)cc1 | inactive |
| COc1nnc(-c2ccc(N3CCOCC3)c(NC(=O)c3ccc(C)cc3)c2)c2ccccc12 | inconclusive: 1.41 µM [activator, partial curve] |
| COc1ccccc1OCC(=O)Nc1ccc(CSc2ccccc2)cc1C | inconclusive: 28.2 µM [activator, single point] |

(cont.)

| Compound | Potency |
| --- | --- |
| COCCn1c(C)cc(/C=C2/NC(=O)N(c3ccc(Cl)cc3)C2=O)c1C | inconclusive: 4.47 µM [activator, full curve, poor fit] |
| CC(=O)NC(CCS(C)(=O)=O)C(=O)Nc1nc(C)cs1 (centres undefined) | inconclusive: 0.316 µM [activator, single point] |
| Cc1ccccc1CNS(=O)(=O)c1ccc2c(c1)OCCO2 | inconclusive: 0.316 µM [inhibitor, full curve] |
| Cn1nnnc1SCCNCc1ccccc1OCc1ccc(F)cc1 | inconclusive: 17.8 µM [activator, single point] |
| COc1ccc(/C=C2\SC(=O)N(CCc3nnc(N)s3)C2=O)cc1 | inactive |
| CC(=O)C1=C(C)N(Cc2ccccc2)C(=O)N[C@H]1CCc1ccccc1 | inconclusive: 14.1 µM [inhibitor, single point] |
| CCOc1ccc(Br)cc1C(=O)N/N=C/c1ccccn1 | active: 11.2 µM |
| CCOc1c(Br)cc(/C=C2/SC(=O)N(CC(=O)N3CCCC3)C2=O)cc1OC | inconclusive: 0.0398 µM [inhibitor, full curve, poor fit] |
| O=c1oc2ccccc2cc1-c1csc(Nc2nc3c(F)cccc3s2)n1 | inactive |
| O=C(CN1C(=O)NC(Cc2ccccc2)C1=O)Nc1ccccc1 (centres undefined) | inconclusive: 20 µM [activator, single point] |
| COC(=O)C1C(=O)C2=C(CC1C)NC(C)=C(C(=O)OC1CCCC1)C2c1ccc(N(C)C)cc1 (centres undefined) | inconclusive: 22.4 µM [activator, single point] |
| CN1CCN(S(=O)(=O)c2ccc(C(=O)Nc3ccccc3)cc2)CC1 | inactive |
| CC(=O)CSc1nnc(-c2ccncc2)n1C | inactive |
| CCOC(=O)c1[nH]nc(-c2c(O)cc(C)cc2O)c1-c1csc(C)n1 | inactive |
| CCCN(Cc1ccccc1)C(=S)Nc1ccc(OCC)cc1 | active: 10 µM |
| CSc1nnc(-c2ccccc2)n1C | inconclusive: 0.005 µM [activator, full curve, poor fit] |
| CNc1ccccc1C(C)(C)c1cn(-c2ccc([N+](=O)[O-])cc2)nn1 | inactive |
| COc1ccc(S(=O)(=O)N2CCCN(CC(=O)Nc3ccc4c(c3)OCO4)CC2)cc1 | inconclusive: 4.47 µM [activator, full curve] |
| O=C(O)c1ccccc1C(=O)NCC(O)COCC1CC=CCC1 (centres undefined) | inconclusive: 35.5 µM [activator, single point] |
| O=C(NCCc1c[nH]c2ccccc12)C(=O)c1c[nH]c2ccccc12 | inconclusive: 14.1 µM [activator, single point] |
| O=C(NC1CCCC1)c1cc(S(=O)(=O)N2CCOCC2)c(Cl)cc1Cl | inactive |
| CCCCCC(=O)NNC(=S)NC(=O)c1cccc([N+](=O)[O-])c1 | active: 3.55 µM |
| O=C(NC1CCCCCC1)C1CC(=O)N(Cc2ccccc2)C1 (centres undefined) | inconclusive: 22.4 µM [inhibitor, single point] |
| COc1ccc(N(C(C)=O)S(=O)(=O)c2cccc3cccnc23)cc1 | inactive |
| CCOC(=O)c1c(-c2cccc([N+](=O)[O-])c2)csc1NC(=O)CCCOc1ccccc1 | inconclusive: 35.5 µM [activator, single point] |

| Compound | Potency |
| --- | --- |
| C#CCOc1c(Cl)cc(/C=N/NC(N)=S)cc1OCC | active: 14.1 µM |
| CCCCNC(=O)C1CCCN(S(=O)(=O)c2ccc(-n3cnnn3)cc2)C1 (centres undefined) | inconclusive: 28.2 µM [inhibitor, single point] |
| Cc1cc(C)cc(N(C(=O)c2csnn2)C(C(=O)NC(C)(C)C)c2ccccn2)c1 (centres undefined) | inactive |
| Cc1sc2nc3n(c(=O)c2c1C)CCCCC3 | inconclusive: 17.8 µM [activator, single point] |
| Clc1ccc(-c2cc(-c3nnc4n3CCCCC4)c3ccccc3n2)cc1 | inconclusive: 35.5 µM [inhibitor, single point] |
| C/C(CCc1ccccc1)=N\NC(=O)c1ccc(CN2CCOCC2)cc1 | inactive |
| CCCN(C(=O)CSc1cc(-c2ccccc2)c2ccc(OC)cc2n1)C1CCS(=O)(=O)C1 (centres undefined) | inconclusive: 35.5 µM [activator, single point] |
| O=C(NCc1ccccc1)C1c2ccccc2Oc2ccccc21 | inactive |
| CCn1cc(C(=O)NCc2cccnc2)c(=O)c2cc(F)c(N3CCN(C(=O)c4ccco4)CC3)cc21 | inactive |
| N/C(=N\S(=O)(=O)c1cc(C(F)(F)F)cc(C(F)(F)F)c1)c1ccc(Cl)cc1 | inconclusive: 31.6 µM [inhibitor, single point] |
| COc1cccc(OC)c1C(=O)Nc1ccc(Br)c(C(=O)c2ccccc2)c1 | inactive |
| Cc1nn(C)c(C(=O)N/N=C/c2cccc(Oc3ccccc3)c2)c1Br | inconclusive: 35.5 µM [inhibitor, single point] |
| CC(=O)Oc1ccc(/C=N\NC(=O)c2cc3c(ccc4ccccc43)o2)cc1 | inactive |
| O=C(CCNS(=O)(=O)c1ccccc1)N1CCN(C(c2ccccc2)c2ccccc2)CC1 | inactive |
| O=C(CCCCCn1c(SCc2ccncc2)nc2ccccc2c1=O)NCc1ccco1 | inconclusive: 35.5 µM [inhibitor, single point] |
| COc1ccc(Nc2ncc(C(=O)N3CCC(C(N)=O)CC3)c3ccccc23)cc1 | inactive |
| O=C(CSc1nc(-c2ccccc2)cs1)NC(=O)NCc1ccco1 | inconclusive: 3.55 µM [activator, single point] |
| O=C(/C=C/Nc1ccc(F)cc1)c1ccc(Oc2ncccn2)cc1 | inconclusive: 1.41 µM [activator, full curve] |
| Cc1ccc(NC(=S)Nc2ccc3[nH]c(=O)[nH]c3c2)cc1C | active: 11.2 µM |
| Cc1ccccc1-c1ccc2ncnc(NCc3cccs3)c2c1 | inactive |
| CCOC(=O)N1CCN(S(=O)(=O)c2ccc(C(=O)Nc3nnc(C)o3)cc2)CC1 | inconclusive: 12.6 µM [inhibitor, partial curve, poor fit] |
| O=C(CN1C(=O)CC(c2ccccc2)=Nc2ccccc21)NC1CCCCC1 | inconclusive: 5.01 µM [activator, partial curve] |
| CS(=O)(=O)NCCSCc1ccc(Cl)cc1 | inactive |
| CCc1ccc(/C=C/C(=O)c2cc(Br)ccc(=O)c2O)cc1 | inconclusive: 35.5 µM [inhibitor, single point] |
